Patent US20040014072, “Novel dna synthase” (published 2004)
For part of these data: Construct, isoform or probe ends are uncertain for at least one entry. For part of these data: No signal at the amounts used counts as a negative. For part of these data: Tags and fusion partners may be left off the protein sequences shown.

Amino acid sequences for entries named in this document (tags omitted). A change or cut given only in a name is not applied to a line headed by its entry.
UniProt Q9P9H1: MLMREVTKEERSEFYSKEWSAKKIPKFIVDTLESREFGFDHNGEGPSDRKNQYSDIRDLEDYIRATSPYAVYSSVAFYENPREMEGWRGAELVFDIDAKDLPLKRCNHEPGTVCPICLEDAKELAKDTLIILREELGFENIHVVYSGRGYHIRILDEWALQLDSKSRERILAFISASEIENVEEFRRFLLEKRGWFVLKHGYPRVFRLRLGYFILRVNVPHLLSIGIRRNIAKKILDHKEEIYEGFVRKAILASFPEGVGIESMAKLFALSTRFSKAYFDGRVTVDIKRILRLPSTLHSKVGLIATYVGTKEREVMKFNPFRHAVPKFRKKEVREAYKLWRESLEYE

Legend:
Assay in all cases: EMSA
[1] = target: p41 (Pyrococcus furiosus) (UniProt Q9P9H1); conditions: no band shift for p41 alone, data not shown; purified recombinant protein; protein details: N-terminal His6; label: 5'-32P
[2] = test system: p41-p46 complex (DNA primase/polymerase) (Pyrococcus furiosus); conditions: 50 mM Tris-Cl pH 8.0, 10 mM MgCl2, 20 mM KCl, 55 C; purified recombinant protein; protein details: N-terminal His6 on p41, p46 untagged; label: 5'-32P
[3] = target: T1, p46 (Pyrococcus furiosus) (UniProt Q8U4H7); conditions: no band shift for p46 alone, data not shown; purified recombinant protein; label: 5'-32P
T1 sequence: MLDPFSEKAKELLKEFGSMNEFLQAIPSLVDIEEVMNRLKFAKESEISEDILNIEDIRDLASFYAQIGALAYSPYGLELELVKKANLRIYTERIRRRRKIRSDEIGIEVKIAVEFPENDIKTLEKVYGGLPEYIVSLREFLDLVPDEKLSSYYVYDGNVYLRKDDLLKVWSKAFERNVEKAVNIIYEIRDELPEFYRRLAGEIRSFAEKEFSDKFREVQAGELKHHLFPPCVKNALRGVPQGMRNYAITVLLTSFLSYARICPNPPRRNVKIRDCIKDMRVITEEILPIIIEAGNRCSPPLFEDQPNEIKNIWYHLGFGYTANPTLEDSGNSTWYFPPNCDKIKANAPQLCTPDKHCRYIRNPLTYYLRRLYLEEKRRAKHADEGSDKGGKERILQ

Does “AGCTACCATGCCTGCACGAATTAAGCAATTCGTAATCATGGTCATAGCT [49-mer annealed to complementary 17-mer]” bind [1]?
Result: no binding

Does “AGCTACCATGCCTGCACGAATTAAGCAATTCGTAATCATGGTCATAGCT [49-mer annealed to complementary 17-mer]” bind [2]?
Result: binds

Does “AGCTACCATGCCTGCACGAATTAAGCAATTCGTAATCATGGTCATAGCT [49-mer annealed to complementary 17-mer]” bind [3]?
Result: no binding
